Laboratory results taken from patent US20050031598A1, “Engineering three-dimensional tissue structures using differentiating embryonic stem cells” (priority 2002, published 2005).
At least one structure is not confirmed: it was looked up by name or label, or the drawing left a doubt.

Key:
[1] = test system: differentiating hES cells (EB day 8); experiment: Histochemical and immunohistochemical staining of hES cell constructs on PLLA/PLGA scaffolds; format: cell-based, human; details: scaffold constructs, two weeks
Description: (§1) For seeding in matrigel, 8-9 days-old EBs were trypsinized, and 0.8×10^6 cells were mixed in 25 μL of a 50% (vol/vol) media and matrigel (growth factor-reduced, BD Biosciences, Bedford, Mass.). EB media was supplemented with the following growth factors: TGF-β1 (2 ng/mL), activin-A (20 ng/mL), and IGF-I (10 ng/mL), (R&D Systems, Minneapolis, Minn.), and RA (300 ng/ml) (Sigma). The mixture was solidified in a 6-well Petri dish at 37° C. and then detached from the dish with sterile blades. 4 mL of each respective EB media was added. For seeding on scaffolds, 0.8×10^6 cells were seeded into each scaffold using 25 μL of a mixture containing 50% (vol/vol) of Growth Factor-Reduced Matrigel and the respective EB media. After seeding the cells, scaffolds were suspended in 6-well petri dishes in their respective media. For some experiments, scaffolds were soaked in 50 μg/mL of fibronectin (Sigma) for 1 hour and washed in PBS prior to direct cell seeding (without matrigel) in 25 μL of EB media.
(§2) Tissue constructs were fixed for 6 hours in 10% neutral buffered formalin, routinely processed, and embedded in paraffin. 5-μm thick transverse sections were placed on silanized slides for immunohistochemistry or staining with hematoxylin and eosin (H & E), trichrome, or Safranin O. Immunohistochemical staining was carried out using the Biocare Medical Universal HRP-DAB kit (Biocare Medical, Walnut Creek, Calif.) according to the manufacturer's instructions, with prior heat-treatment at 90° C. for 20 minutes in ReVeal buffer (Biocare Medical) for epitope recovery. The primary antibodies were mouse anti-human: desmin (1:150), alpha feto protein (1:2500), cytokeratin 7 (1:25), CD31 (1:20), albumin (1:100), vimentin (1:50), S100 (1:100) (all from Dako), anti-human βIII-tubulin (Sigma, 1:500), nestin (Transduction Laboratories, San Diego, Calif., 1:1000), CD34 (Labvision, Fremont, Calif., 1:20), SSEA4 (Hybridoma Bank, University of Iowa, Ames, 1:4), and Tra 1-60 (a gift from Peter Andrews, University of Sheffield, Sheffield, U.K., 1:10). Human and mouse tissues (Daks) were used as controls to ensure antibody specificity (FIG. 1). For proliferation studies, culture medium was incubated with 10 μm of 5′-bromo-2′-deoxyuridine (BrdUrd) (Sigma) for 3 hours before fixation. Tissue sections were stained using mouse anti-BrdUrd antibodies (1:1000).

[2] = test system: differentiating hES cells (EB day 8); experiment: RT-PCR gene expression analysis of hES cell constructs on PLLA/PLGA scaffolds; format: cell-based, human; details: scaffold constructs, two weeks
Description: as §1
Total RNA was isolated by an RNEasy Mini Kit (Qiagen, Chatsworth, Calif.). RT-PCR was carried out using a Qiagen OneStep RT-PCR kit with 10 units RNase inhibitor (Gibco) and 40 ng RNA. Primer sequences, reaction conditions, and cycle numbers were as described^7,15. The amplified products were separated on 1.2% agarose gels with ethidium bromide (E-Gel, Invitrogen, Gaithersburg, Mass.). For some gels including RNA amplified using a GADPH primer, semi-quantitative analysis was performed by measuring the mean pixel intensities of each band and normalizing the measured intensity to the mean pixel intensity of the GADPH band.

[3] = test system: SCID mice; experiment: Transplantation of hES-scaffold constructs into SCID mice; format: in vivo, mouse; details: 2-week-old constructs implanted s.c., 14 days; versus in vitro or control medium
[4] = test system: differentiating hES cells (EBs day 8); experiment: Differentiation of hES cells in matrigel alone; format: cell-based, human
Description: as §1
as §2, with “Human and mouse tissues (Daks) were used as controls to ensure antibody specificity (FIG. 1). For proliferation studies, culture medium was incubated with 10 μm of 5′-bromo-2′-deoxyuridine (BrdUrd) (Sigma) for 3 hours before fixation. Tissue sections were stained using mouse anti-BrdUrd antibodies (1:1000).” left out

CC1=C(/C=C/C(C)=C/C=C/C(C)=C/C(=O)O)C(C)(C)CCC1 [RA, retinoic acid]
Safranin-O staining for glycosaminoglycans (cartilage extracellular matrix) [1]: did not induce formation of Safranin O-positive matrix | collagen formation (trichrome staining) [1]: inhibited collagen formation | elongated smooth muscle-like cells organized around lumens [1]: not in samples treated with RA | nestin and βIII-tubulin staining of neural tube-like rosette structures [1]: positive for nestin and βIII-tubulin | vessel formation (immunostaining with CD34 and CD31) [1]: neither formed vessels | tissue structures formed ([1]; in comparison to other growth factors): preferential development of epithelial-lined solid and ductular structures | alpha feto protein (AFP) and albumin staining ([1]; in comparison to the control): no staining was observed | CD34 or CD31 gene expression (RNA analysis) [2]: nor expressed CD34 or CD31 genes | expression of mesodermal and endodermal genes [2]: very low expression | keratin and neurofilament RNA [2]: high levels | neural structures after construct maturation in vivo [3]: larger and better organized neural structures | epithelial-lined tubular or cystic structures (histology) ([4]; two weeks): did not contain any such structures | nestin expression ([4]; two weeks): very low expression (if any) | shape of cell-matrigel structure ([4]; two weeks in suspension): small, condensed spheres
